Measured values published in ChEMBL document CHEMBL1268908, “Design, synthesis, radiolabeling, and in vivo evaluation of carbon-11 labeled N-[2-[4-(3-cyanopyridin-2-yl)piperazin-1-yl]ethyl]-3-methoxybenzamide, a potential positron emission tomography tracer for the dopamine D(4) receptors” (J Med Chem, 2010).
The source gives many values for each of these; only a part stands here.

Assays:
Format in all cases: ADME, organism-based, Macaca mulatta
[1] = Biodistribution in rhesus monkey occipital lobe at 150.3 MBq, iv after 57.5 mins; settings: in vivo
[2] = Biodistribution in rhesus monkey entorhinal cortex at 150.3 MBq, iv after 6.5 mins; settings: in vivo
[3] = Biodistribution in rhesus monkey entorhinal cortex at 150.3 MBq, iv after 3.5 mins; settings: in vivo
[4] = Biodistribution in rhesus monkey cerebellum at 150.3 MBq, iv after 45 mins; settings: in vivo, 0.75 h
[5] = Biodistribution in rhesus monkey retina at 150.3 MBq, iv after 49 mins; settings: in vivo
[6] = Biodistribution in rhesus monkey occipital lobe at 150.3 MBq, iv after 72.5 mins; settings: in vivo
[7] = Biodistribution in rhesus monkey occipital lobe at 170.3 MBq, iv after 17 mins; settings: in vivo
[8] = Biodistribution in rhesus monkey cingulate cortex at 150.3 MBq, iv after 33 mins; settings: in vivo, 0.55 h
[9] = Biodistribution in rhesus monkey cingulate cortex at 150.3 MBq, iv after 35 mins; settings: in vivo
[10] = Biodistribution in rhesus monkey retina at 150.3 MBq, iv after 0.25 mins; settings: in vivo, 15 s
[11] = Biodistribution in rhesus monkey occipital lobe at 150.3 MBq, iv after 0.25 mins; settings: in vivo, 15 s
[12] = Biodistribution in rhesus monkey cingulate cortex at 150.3 MBq, iv after 43 mins; settings: in vivo
[13] = Biodistribution in rhesus monkey entorhinal cortex at 150.3 MBq, iv after 72.5 mins; settings: in vivo
[14] = Biodistribution in rhesus monkey occipital lobe at 150.3 MBq, iv after 13 mins; settings: in vivo
[15] = Biodistribution in rhesus monkey entorhinal cortex at 150.3 MBq, iv after 37 mins; settings: in vivo
[16] = Biodistribution in rhesus monkey occipital lobe at 150.3 MBq, iv after 0.75 mins; settings: in vivo, 45 s
[17] = Biodistribution in rhesus monkey entorhinal cortex at 150.3 MBq, iv after 8.5 mins; settings: in vivo
[18] = Biodistribution in rhesus monkey retina at 150.3 MBq, iv after 0.75 mins; settings: in vivo, 45 s
[19] = Biodistribution in rhesus monkey retina at 150.3 MBq, iv after 43 mins; settings: in vivo
[20] = Biodistribution in rhesus monkey retina at 150.3 MBq, iv after 21 mins; settings: in vivo, 0.35 h
[21] = Biodistribution in rhesus monkey occipital lobe at 150.3 MBq, iv after 1.75 mins; settings: in vivo, 105 s
[22] = Biodistribution in rhesus monkey retina at 150.3 MBq, iv after 27 mins; settings: in vivo, 0.45 h
[23] = Biodistribution in rhesus monkey cingulate cortex at 150.3 MBq, iv after 2.75 mins; settings: in vivo, 165 s
[24] = Biodistribution in rhesus monkey cerebellum at 150.3 MBq, iv after 82.5 mins; settings: in vivo, 1.375 h
[25] = Biodistribution in rhesus monkey retina at 150.3 MBq, iv after 67.5 mins; settings: in vivo, 1.125 h
[26] = Biodistribution in rhesus monkey retina at 170.3 MBq, iv after 17 mins; settings: in vivo
[27] = Biodistribution in rhesus monkey cingulate cortex at 150.3 MBq, iv after 1.75 mins; settings: in vivo, 105 s
[28] = Biodistribution in rhesus monkey cingulate cortex at 150.3 MBq, iv after 52.5 mins; settings: in vivo, 0.875 h
[29] = Biodistribution in rhesus monkey entorhinal cortex at 150.3 MBq, iv after 9.5 mins; settings: in vivo
[30] = Biodistribution in rhesus monkey entorhinal cortex at 150.3 MBq, iv after 7.5 mins; settings: in vivo, 0.125 h
[31] = Biodistribution in rhesus monkey retina at 150.3 MBq, iv after 1.75 mins; settings: in vivo, 105 s
[32] = Biodistribution in rhesus monkey occipital lobe at 150.3 MBq, iv after 45 mins; settings: in vivo, 0.75 h
[33] = Biodistribution in rhesus monkey occipital lobe at 150.3 MBq, iv after 2.75 mins; settings: in vivo, 165 s
[34] = Biodistribution in rhesus monkey cerebellum at 150.3 MBq, iv after 52.5 mins; settings: in vivo, 0.875 h
[35] = Biodistribution in rhesus monkey occipital lobe at 150.3 MBq, iv after 21 mins; settings: in vivo, 0.35 h
[36] = Biodistribution in rhesus monkey occipital lobe at 150.3 MBq, iv after 33 mins; settings: in vivo, 0.55 h
[37] = Biodistribution in rhesus monkey cingulate cortex at 150.3 MBq, iv after 62.5 mins; settings: in vivo
[38] = Biodistribution in rhesus monkey cerebellum at 150.3 MBq, iv after 43 mins; settings: in vivo
[39] = Biodistribution in rhesus monkey retina at 150.3 MBq, iv after 39 mins; settings: in vivo, 0.65 h
[40] = Biodistribution in rhesus monkey retina at 150.3 MBq, iv after 8.5 mins; settings: in vivo
[41] = Biodistribution in rhesus monkey cingulate cortex at 150.3 MBq, iv after 9.5 mins; settings: in vivo
[42] = Biodistribution in rhesus monkey retina at 150.3 MBq, iv after 1.25 mins; settings: in vivo, 75 s
[43] = Biodistribution in rhesus monkey retina at 150.3 MBq, iv after 4.5 mins; settings: in vivo, 0.075 h
[44] = Biodistribution in rhesus monkey occipital lobe at 150.3 MBq, iv after 15 mins; settings: in vivo, 0.25 h
[45] = Biodistribution in rhesus monkey cerebellum at 150.3 MBq, iv after 1.75 mins; settings: in vivo, 105 s
[46] = Biodistribution in rhesus monkey cingulate cortex at 150.3 MBq, iv after 45 mins; settings: in vivo, 0.75 h
[47] = Biodistribution in rhesus monkey entorhinal cortex at 150.3 MBq, iv after 77.5 mins; settings: in vivo
[48] = Biodistribution in rhesus monkey retina at 150.3 MBq, iv after 9.5 mins; settings: in vivo
[49] = Biodistribution in rhesus monkey cingulate cortex at 150.3 MBq, iv after 0.75 mins; settings: in vivo, 45 s
[50] = Biodistribution in rhesus monkey occipital lobe at 150.3 MBq, iv after 19 mins; settings: in vivo
[51] = Biodistribution in rhesus monkey retina at 150.3 MBq, iv after 5.5 mins; settings: in vivo
[52] = Biodistribution in rhesus monkey entorhinal cortex at 150.3 MBq, iv after 5.5 mins; settings: in vivo
[53] = Biodistribution in rhesus monkey entorhinal cortex at 150.3 MBq, iv after 0.25 mins; settings: in vivo, 15 s
[54] = Biodistribution in rhesus monkey retina at 150.3 MBq, iv after 31 mins; settings: in vivo
[55] = Biodistribution in rhesus monkey entorhinal cortex at 150.3 MBq, iv after 57.5 mins; settings: in vivo
[56] = Biodistribution in rhesus monkey occipital lobe at 150.3 MBq, iv after 7.5 mins; settings: in vivo, 0.125 h
[57] = Biodistribution in rhesus monkey cerebellum at 150.3 MBq, iv after 9.5 mins; settings: in vivo
[58] = Biodistribution in rhesus monkey cerebellum at 150.3 MBq, iv after 67.5 mins; settings: in vivo, 1.125 h
[59] = Biodistribution in rhesus monkey entorhinal cortex at 150.3 MBq, iv after 43 mins; settings: in vivo
[60] = Biodistribution in rhesus monkey cingulate cortex at 150.3 MBq, iv after 87.5 mins; settings: in vivo
[61] = Biodistribution in rhesus monkey occipital lobe at 150.3 MBq, iv after 62.5 mins; settings: in vivo
[62] = Biodistribution in rhesus monkey cerebellum at 150.3 MBq, iv after 87.5 mins; settings: in vivo
[63] = Biodistribution in rhesus monkey occipital lobe at 150.3 MBq, iv after 25 mins; settings: in vivo
[64] = Biodistribution in rhesus monkey cerebellum at 150.3 MBq, iv after 7.5 mins; settings: in vivo, 0.125 h
[65] = Biodistribution in rhesus monkey occipital lobe at 150.3 MBq, iv after 47 mins; settings: in vivo
[66] = Biodistribution in rhesus monkey entorhinal cortex at 150.3 MBq, iv after 31 mins; settings: in vivo
[67] = Biodistribution in rhesus monkey cerebellum at 150.3 MBq, iv after 33 mins; settings: in vivo, 0.55 h
[68] = Biodistribution in rhesus monkey occipital lobe at 150.3 MBq, iv after 35 mins; settings: in vivo
[69] = Biodistribution in rhesus monkey entorhinal cortex at 150.3 MBq, iv after 82.5 mins; settings: in vivo, 1.375 h
[70] = Biodistribution in rhesus monkey entorhinal cortex at 150.3 MBq, iv after 11 mins; settings: in vivo
[71] = Biodistribution in rhesus monkey cerebellum at 150.3 MBq, iv after 19 mins; settings: in vivo
[72] = Biodistribution in rhesus monkey entorhinal cortex at 150.3 MBq, iv after 1.25 mins; settings: in vivo, 75 s

SMILES: [11CH3]Oc1cccc(C(=O)NCCN2CCN(c3ncccc3C#N)CC2)c1
- Drug uptake [1]: 8.64 kBq/ml
- Drug uptake [2]: 36.94 kBq/ml
- Drug uptake [3]: 38.9 kBq/ml
- Drug uptake [4]: 10.06 kBq/ml
- Drug uptake [5]: 55.93 kBq/ml
- Drug uptake [6]: 8.472 kBq/ml
- Drug uptake [7]: 16.62 kBq/ml
- Drug uptake [8]: 12.88 kBq/ml
- Drug uptake [9]: 12.76 kBq/ml
- Drug uptake [10]: 19.99 kBq/ml
- Drug uptake [11]: 39.79 kBq/ml
- Drug uptake [12]: 10.26 kBq/ml
- Drug uptake [13]: 8.334 kBq/ml
- Drug uptake [14]: 19.71 kBq/ml
- Drug uptake [15]: 13.27 kBq/ml
- Drug uptake [16]: 61.53 kBq/ml
- Drug uptake [17]: 27.02 kBq/ml
- Drug uptake [18]: 32.68 kBq/ml
- Drug uptake [19]: 57.27 kBq/ml
- Drug uptake [20]: 54.93 kBq/ml
- Drug uptake [21]: 51.02 kBq/ml
- Drug uptake [22]: 56.96 kBq/ml
- Drug uptake [23]: 47.49 kBq/ml
- Drug uptake [24]: 8.2 kBq/ml
- Drug uptake [25]: 52.23 kBq/ml
- Drug uptake [26]: 52.3201 kBq/ml
- Drug uptake [27]: 54.37 kBq/ml
- Drug uptake [28]: 10.77 kBq/ml
- Drug uptake [29]: 27.53 kBq/ml
- Drug uptake [30]: 29.06 kBq/ml
- Drug uptake [31]: 36.64 kBq/ml
- Drug uptake [32]: 9.235 kBq/ml
- Drug uptake [33]: 40.68 kBq/ml
- Drug uptake [34]: 9.47 kBq/ml
- Drug uptake [35]: 15.93 kBq/ml
- Drug uptake [36]: 11.64 kBq/ml
- Drug uptake [37]: 9.561 kBq/ml
- Drug uptake [38]: 10.72 kBq/ml
- Drug uptake [39]: 56.78 kBq/ml
- Drug uptake [40]: 46.01 kBq/ml
- Drug uptake [41]: 27.2242 kBq/ml
- Drug uptake [42]: 35.23 kBq/ml
- Drug uptake [43]: 41.39 kBq/ml
- Drug uptake [44]: 17.93 kBq/ml
- Drug uptake [45]: 48.2238 kBq/ml
- Drug uptake [46]: 10.98 kBq/ml
- Drug uptake [47]: 7.835 kBq/ml
- Drug uptake [48]: 48.45 kBq/ml
- Drug uptake [49]: 65.69 kBq/ml
- Drug uptake [50]: 15.73 kBq/ml
- Drug uptake [51]: 43.55 kBq/ml
- Drug uptake [52]: 35.22 kBq/ml
- Drug uptake [53]: 26.55 kBq/ml
- Drug uptake [54]: 57.45 kBq/ml
- Drug uptake [55]: 8.599 kBq/ml
- Drug uptake [56]: 26.71 kBq/ml
- Drug uptake [57]: 25.93 kBq/ml
- Drug uptake [58]: 8.418 kBq/ml
- Drug uptake [59]: 10.13 kBq/ml
- Drug uptake [60]: 9.674 kBq/ml
- Drug uptake [61]: 8.641 kBq/ml
- Drug uptake [62]: 7.664 kBq/ml
- Drug uptake [63]: 14.67 kBq/ml
- Drug uptake [64]: 28.6761 kBq/ml
- Drug uptake [65]: 9.212 kBq/ml
- Drug uptake [66]: 14.86 kBq/ml
- Drug uptake [67]: 12.73 kBq/ml
- Drug uptake [68]: 10.85 kBq/ml
- Drug uptake [69]: 9.189 kBq/ml
- Drug uptake [70]: 24.2 kBq/ml
- Drug uptake [71]: 17.26 kBq/ml
- Drug uptake [72]: 40.62 kBq/ml
